# Measurements published in PubChem BioAssay AID1259354 (Paczesny and Yang Labs, IUPUI and University of Michigan, 2018).
# Sequences of proteins named here, by UniProt entry; tags and fusion partners are left off. A change or cut given only in a name is not applied to a line headed by its entry.
# UniProt Q01638: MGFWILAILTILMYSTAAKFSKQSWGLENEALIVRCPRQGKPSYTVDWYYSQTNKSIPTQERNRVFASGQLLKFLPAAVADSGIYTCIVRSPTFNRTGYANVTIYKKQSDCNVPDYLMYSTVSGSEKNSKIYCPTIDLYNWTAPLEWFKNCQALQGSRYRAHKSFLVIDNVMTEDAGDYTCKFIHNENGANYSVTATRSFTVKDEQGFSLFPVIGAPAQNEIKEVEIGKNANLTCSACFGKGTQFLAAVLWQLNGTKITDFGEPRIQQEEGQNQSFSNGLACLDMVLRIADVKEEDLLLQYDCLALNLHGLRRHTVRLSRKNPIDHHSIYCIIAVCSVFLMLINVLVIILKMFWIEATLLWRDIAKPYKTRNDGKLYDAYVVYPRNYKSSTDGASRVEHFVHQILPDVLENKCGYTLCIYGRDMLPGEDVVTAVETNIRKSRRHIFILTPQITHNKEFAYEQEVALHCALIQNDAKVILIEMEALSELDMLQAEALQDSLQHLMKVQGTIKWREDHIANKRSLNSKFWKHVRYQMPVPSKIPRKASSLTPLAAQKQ
# Screen size: about 78,000 compounds; about 1,800 (2.3%) were called active. The inconclusive results got no clear call from the source; some entries with a clear call stand among them for comparison. No stated cut-off is given here; in the data, active means inhibition above about 30%; inconclusive means mostly about 10% to 28%; inactive means weaker than that.
# Target: Interleukin-1 receptor-like 1 (Homo sapiens) (UniProt Q01638)
# Assay: blocks human ST2 binding to IL-33, primary screen, biochemical, AlphaLISA (AID 1259354)
# Details: AlphaLISA ST2-Fc/biotin-IL-33 interaction, 1 h; at 17 µM, hits give high values
row,Structure (SMILES),inhibition
1,Cc1cc(C(F)(F)F)c2c(N)c(C(=O)c3ccc(Br)cc3)sc2n1,inconclusive: 23%
2,COc1ccc(C(=O)NC[C@H]2O[C@@H](CC(=O)N(C)Cc3ccccc3)[C@H](O)[C@@H]2O)cc1,inconclusive: 12%
3,COCCN1CC(Nc2nc(-c3cccnc3)nc3c2CCNC3)CC1=O (centres undefined),inconclusive: 23%
4,O=C(c1ccc2c(c1)N(Cc1ccccc1)C(=O)CS2)N1CCCC1,inactive
5,Cc1cc(C)n(CC(C)NC(=O)c2cc(CN3CCC(O)CC3)on2)n1 (centres undefined),inconclusive: 14%
6,CC(C)c1nccn1CCCNC(=O)c1ccc(-c2cn[nH]c2)nc1,inconclusive: 12%
7,O=C(Cn1c(=O)n(-c2ccc(F)cc2)c(=O)c2sccc21)N1CCCC1,inconclusive: 13%
8,CC(=O)N1c2c(cc(Br)cc2S(=O)(=O)Nc2ccc(C)c(Cl)c2)CC1C (centres undefined),inconclusive: 11%
9,COc1ccc(CNc2ccc3c(c2)ncn3C2CCCCC2)cc1,active: 39%
10,COc1cc([N+](=O)[O-])ccc1NC(=O)CC1CCCCC1,inconclusive: 12%
11,O=C(NCCCN1CCCCCC1)C1CCN(c2ccc(-c3cccs3)nn2)CC1,inconclusive: 12%
12,CC(=O)Nc1ccc(Cl)c(C(=O)N(C)Cc2nc3ccccc3n2C)c1,inconclusive: 22%
13,CCN(C(=O)c1cc2c(=O)n3cccc(C)c3nc2n1C)c1ccccc1,inconclusive: 15%
14,CCOC(CCNC(=O)c1cc2cc3ccc(C)cc3nc2s1)OCC,inconclusive: 15%
15,CC(C)Cc1cc(C(=O)N2CCCN(C)C3(CCN(C)CC3)C2)nc(N)n1,inconclusive: 23%
16,O=[N+]([O-])c1cccc(-c2noc([C@@H]3C[C@@H](O)CN3Cc3cccs3)n2)c1,active: 61%
17,CNc1nc2c(C)cccn2c(=O)c1C=NCCO,active: 83%
18,CC(C)(C)NCCCOc1ccc(Br)cc1Cl,inactive
19,COc1ccc(N=Cc2c(Nc3ccc(Cl)cc3)nc3c(C)cccn3c2=O)cc1,inconclusive: 15%
20,CN1C[C@@H](NC(=O)Nc2cccc(F)c2)C[C@H]1c1nc(Cc2ccccc2)no1,inconclusive: 11%
21,CC(=O)N(CN1C(=O)c2ccc(Br)cc2C1=O)c1ccccc1,inactive
22,CC(C)C1CN(C(=O)c2cn[nH]c2-n2cnnn2)CCCN1CC1CC1 (centres undefined),inconclusive: 15%
23,O=C(c1ccco1)N1Cc2[nH]cnc2C[C@H]1c1nc(-c2ccc3ccccc3c2)no1,inconclusive: 12%
24,COc1ccc(NC(=O)c2c(F)c(F)c(F)c(F)c2F)c([N+](=O)[O-])c1,inactive

# Entries shown so far containing an NH in an aromatic ring, in the order listed:
row,Structure (SMILES),inhibition
6,CC(C)c1nccn1CCCNC(=O)c1ccc(-c2cn[nH]c2)nc1,inconclusive: 12%
22,CC(C)C1CN(C(=O)c2cn[nH]c2-n2cnnn2)CCCN1CC1CC1 (centres undefined),inconclusive: 15%
23,O=C(c1ccco1)N1Cc2[nH]cnc2C[C@H]1c1nc(-c2ccc3ccccc3c2)no1,inconclusive: 12%

# Going on with the list:

row,Structure (SMILES),inhibition
1,CCCC1COCCN1C(=O)CCc1c[nH]c2ccccc12 (centres undefined),inconclusive: 13%
2,Cc1ccc(C2CC(=O)C3=C(C2)Nc2ccccc2NC3c2ccccc2F)cc1 (centres undefined),inconclusive: 26%
3,COc1cc(NC(=O)c2cc(-c3cccs3)on2)cc(OC)c1OC,inconclusive: 10%
4,CCOc1ccc(CN2CCC(N3CCCCC3)CC2)cc1,inactive
5,O=S(=O)(c1cccs1)n1nnc2ccccc21,inactive
6,Cc1ccc(-c2nc(S(=O)(=O)c3ccc(Cl)cc3)c(SCC(N)=O)o2)cc1,inconclusive: 11%
7,CCn1cc(S(=O)(=O)NCc2cnn3ccccc23)c(C)n1,inconclusive: 19%
8,Cc1cc(C)n2c(NC3CCCC3)c(-c3ccccc3)nc2n1,inconclusive: 13%
9,O=C(Nc1ccc(F)cc1)c1cc(=O)c2ccccc2o1,inactive
10,Cc1ccc(N2NC(=O)/C(=C/c3cc([N+](=O)[O-])ccc3N(C)C)C2=O)cc1C,inconclusive: 29%
11,CC(C)c1ccc2cc(C(=O)N(C)[C@@H]3CS(=O)(=O)C[C@H]3O)[nH]c2c1,inactive
12,Cc1ccc2nc(NC(=O)CCC(=O)O)sc2c1,inconclusive: 12%
13,O=C(Nc1c(F)cc(F)cc1Br)c1cc(-c2ccccc2O)on1,inactive
14,CC12COC3(C(=O)Nc4ccc([N+](=O)[O-])cc4)CC1CCC32C (centres undefined),inconclusive: 15%
15,CCOc1ccc(C(=O)NCCNS(=O)(=O)c2ccc(Cl)cc2)o1,inactive
16,CC(=O)c1ccc(-n2nncc2-c2ccc([N+](=O)[O-])cc2)cc1,inconclusive: 11%
17,O=C1CCCN2N=C(SCC(=O)OCc3ccccc3)SC2=N1,inactive
18,O=C(NC1CC=CC1)C1CCCN(C2CCN(C(=O)C3CC3)CC2)C1 (centres undefined),inconclusive: 12%
19,O=c1/c(=C/c2ccc(I)o2)sc2n1CN(c1ccccc1)CN=2,inconclusive: 27%
20,COc1ccc(/C=c2\sc3n(c2=O)CN(c2ccc4c(c2)OCO4)CN=3)cc1OC,inconclusive: 11%
21,CN1CCC(Cc2noc(-c3cccc(OCC(N)=O)c3)n2)CC1,inactive
22,Nc1ccc2oc(-c3ccc(Cl)c(Cl)c3)nc2c1,inconclusive: 18%
23,O=C1S/C(=C\c2ccccc2F)C(=O)N1CNc1cccc(F)c1,inactive
24,O=C(Nc1n[nH]c(C2CCCCC2)n1)N1CCc2c([nH]c3ccccc23)C1,inconclusive: 11%

# Sorted by molar mass (smallest number first): three of the compounds above
row,Structure (SMILES),inhibition
12,Cc1ccc2nc(NC(=O)CCC(=O)O)sc2c1,inconclusive: 12%
21,CN1CCC(Cc2noc(-c3cccc(OCC(N)=O)c3)n2)CC1,inactive
20,COc1ccc(/C=c2\sc3n(c2=O)CN(c2ccc4c(c2)OCO4)CN=3)cc1OC,inconclusive: 11%

# (list continues)

row,Structure (SMILES),inhibition
1,Cc1cc(Br)ccc1NC(=O)c1cnc2scc(C)n2c1=O,inconclusive: 10%
2,CN(C)S(=O)(=O)N1CCC(Oc2cccc(C(=O)N3C[C@@H]4CC[C@H]3C4)c2)CC1,inconclusive: 16%
3,COc1ccccc1N1CCN(Cc2ccsc2)CC1,inactive
4,O=c1[nH]c(Nc2ccc(Cl)cc2)nnc1Cc1ccccc1Cl,inactive
5,O=C(CS(=O)(=O)c1cn(Cc2cccc(F)c2)c2ccccc12)NC1CCCCC1,inactive
6,CCN(CC)c1ccc(C2C(C(=O)Nc3ccccn3)=C(C)NC3=C2C(=O)CC(C)(C)C3)cc1 (centres undefined),inconclusive: 22%
7,Cc1ccc(CCC(=O)Nc2ncc(Cc3ccc(F)cc3)s2)o1,inconclusive: 20%
8,CCCC1COCCN1C(=O)c1cc2ncc(CCO)cn2n1 (centres undefined),inconclusive: 12%
9,Cc1ccc(CNc2ncnc3c2cnn3-c2cccc(C)c2)cc1,inconclusive: 12%
10,COc1ccc(-c2cc(C(=O)N(C)C3CCCN(CCc4ccccc4)C3)[nH]n2)cc1 (centres undefined),inactive
11,COc1cccc(CN2CCN(Cc3cccc(SC)c3)CC2=O)c1,inactive
12,Fc1ccc(C(Nc2ccccn2)c2c[nH]c3ccccc23)cc1 (centres undefined),inactive
13,O=C(Nc1ccc(Oc2ccccc2)cc1)O[C@@H]1CO[C@H]2[C@@H]1OC[C@@H]2Nc1nccc(-c2cccs2)n1,active: 34%
14,Cc1ccc(-n2nc3c(c2NC(=O)C(C)(C)C)CSC3)cc1,inactive
15,COc1ccccc1CN1CCC(C(=O)Nc2cccc(-c3cscn3)c2)CC1,inconclusive: 10%
16,CCOc1ccc(S(=O)(=O)N2CCCc3ccccc32)c2cccnc12,inconclusive: 11%
17,O=C(NC1CC(=O)N(CCCc2ccccc2)C1)c1ccsc1 (centres undefined),inactive
18,COc1ccc(C(=O)N[C@H]2CO[C@H]3[C@@H]2OC[C@@H]3n2nnnc2Oc2ccc(-n3ccnc3)cc2)cc1,inconclusive: 13%
19,Cc1ccccc1C(=O)N1CCN=C1SCc1ccccc1F,inconclusive: 13%
20,Cc1ccc(C(=O)Nc2ccc3c(c2)ncn3-c2ccccc2C)cc1,inactive
21,COCCCNC(=O)C1c2cc(OC)c(OC)cc2C(=O)N(C)C1c1ccc(OC)cc1 (centres undefined),inactive
22,CC(=O)NC1C(Oc2ccccc2)OC2COC(C)(C)OC2C1O (centres undefined),inconclusive: 23%
23,CCCCCCCCCCC1C(=O)OC(C(=O)O)C1(O)C(=O)O (centres undefined),inactive
24,CCOC(=O)C1=C(N)OC2=C(C(=O)CC(C)(C)C2)C1c1cc([N+](=O)[O-])c(C)s1 (centres undefined),inactive

row,Structure (SMILES),inhibition
1,Cc1ccsc1C(CNC1CCN(C(=O)c2ccccc2)CC1)N(C)C (centres undefined),inconclusive: 10%
2,CCC(C)Oc1ccc(CN2CCC3(CC2)NCCNC3=O)cc1Cl (centres undefined),inconclusive: 15%
3,CCc1c(C)nc2ncnn2c1Sc1ccccc1NC(=O)Nc1cc(Cl)ccc1C,inconclusive: 15%
4,Cc1ccc(-c2nc3sccn3c2Nc2ccc3c(c2)OCCO3)cc1,inconclusive: 13%
5,O=C(NC1CC(=O)N(c2cccc(F)c2)C1)c1ccc(Br)o1 (centres undefined),inconclusive: 13%
6,O=C(Nc1nnc(COc2ccc(Cl)cc2)s1)C1CCCCC1,inactive
7,NS(=O)(=O)c1ccc(NC(=O)c2ccc(-c3ccc(Br)cc3)o2)cc1,inactive
8,c1ccc(COc2ccc(CN3CCOCC3)cc2)cc1,inactive
9,Cc1[nH]cnc1-c1n[nH]c(=O)n1Cc1cccs1,inconclusive: 15%
10,CC1CC(C)CN(C(=O)CSc2cc(=O)n(C)c3cc(Cl)ccc23)C1 (centres undefined),inactive
11,c1cncc(CNc2cc(-c3ccc4cn[nH]c4c3)c3cc[nH]c3n2)c1,inconclusive: 16%
12,CC(C)CC1=NN(C(=O)c2ccccc2Cl)C(O)(C(F)(F)F)C1 (centres undefined),inactive
13,COc1ccc2c(c1OC)C(=O)O[C@@H]2[C@H]1c2c(cc3c(c2OC)OCO3)CCN1C,inconclusive: 11%
14,O=C(NC(c1ccccc1)c1ccccc1)c1ccccc1Cl,inconclusive: 10%
15,O=C(c1noc2c1CCc1ccccc1-2)N1CCCC1,inactive
16,O=C(O)C[C@@H]1CCN(Cc2ccccc2)C[C@@H]1CCN1C[C@@H]2C[C@H](C1)c1cccc(=O)n1C2,inconclusive: 18%
17,COc1ccc(C2=Nn3c(nnc3-c3ccc(Br)cc3)SC2)cc1,inconclusive: 10%
18,CCOC(=O)c1ccc(NC(=O)N2Cc3[nH]cnc3C[C@H]2c2nc(-c3ccc(C)cc3)no2)cc1,inconclusive: 15%
19,Cc1c(C(=O)N2CCN(C)C3(CCN(C)CC3)C2)nnn1Cc1ccccc1,inconclusive: 11%
20,CC1CCN(C(=O)Cn2cnc3c(cnn3-c3ccc(F)cc3)c2=O)CC1,inconclusive: 16%
21,CCc1ccc(C2C(C#N)=C(SCc3ccccc3)NC(=O)C2C(=O)OC)cc1 (centres undefined),inactive
22,Cc1ccc(C)c(N=C(NN)c2nc3ccccc3s2)c1,inconclusive: 24%
